No constants are given. Whether binding was seen depends on the method and setting. In cells and extracts the contact can be indirect.
Target: HA-tagged FAM72C (human) (UniProt H0Y354)
Assay: co-IP; anti-HA on protein G beads from lysates of FAM72-/- HCT116 cells expressing HA-FAM72A/B/C/D, cells treated with 20 uM MG132 for 6 h; lysis in 40 mM Tris-HCl pH 7.5, 150 mM NaCl, 1 mM EDTA, 10 mM NaF, 1% NP-40 substitute; overnight; blot for UNG

Amino acid sequences for entries named in this document (tags omitted).
UniProt H0Y354: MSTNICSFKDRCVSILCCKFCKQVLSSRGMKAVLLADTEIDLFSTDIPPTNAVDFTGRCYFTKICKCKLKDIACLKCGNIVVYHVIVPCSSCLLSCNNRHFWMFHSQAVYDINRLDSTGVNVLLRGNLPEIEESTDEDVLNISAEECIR

- binding: no binding
Substance: Uracil DNA glycosylase 2 (UNG2), endogenous (from UniProt P13051-1 1-313)
